# Experimental data as given in PubChem BioAssay (EPA / NIEHS).
# The chains behind the UniProt entries cited, without tags or fusion partners. Where a name states a change or a piece, a line headed by the entry shows the natural chain unless it says otherwise.
# UniProt P10276, whole entry, looked up: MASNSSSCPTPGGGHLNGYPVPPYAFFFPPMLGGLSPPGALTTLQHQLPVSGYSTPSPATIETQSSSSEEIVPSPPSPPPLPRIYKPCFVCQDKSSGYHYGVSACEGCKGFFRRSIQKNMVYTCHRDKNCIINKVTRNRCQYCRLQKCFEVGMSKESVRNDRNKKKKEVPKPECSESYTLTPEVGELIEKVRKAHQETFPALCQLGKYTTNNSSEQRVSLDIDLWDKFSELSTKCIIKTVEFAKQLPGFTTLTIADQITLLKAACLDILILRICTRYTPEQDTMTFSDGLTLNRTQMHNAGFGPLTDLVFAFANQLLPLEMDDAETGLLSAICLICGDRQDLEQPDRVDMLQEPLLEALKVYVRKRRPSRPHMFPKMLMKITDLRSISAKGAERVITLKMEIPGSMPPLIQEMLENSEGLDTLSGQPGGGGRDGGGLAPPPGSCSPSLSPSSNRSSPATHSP
# UniProt O75469: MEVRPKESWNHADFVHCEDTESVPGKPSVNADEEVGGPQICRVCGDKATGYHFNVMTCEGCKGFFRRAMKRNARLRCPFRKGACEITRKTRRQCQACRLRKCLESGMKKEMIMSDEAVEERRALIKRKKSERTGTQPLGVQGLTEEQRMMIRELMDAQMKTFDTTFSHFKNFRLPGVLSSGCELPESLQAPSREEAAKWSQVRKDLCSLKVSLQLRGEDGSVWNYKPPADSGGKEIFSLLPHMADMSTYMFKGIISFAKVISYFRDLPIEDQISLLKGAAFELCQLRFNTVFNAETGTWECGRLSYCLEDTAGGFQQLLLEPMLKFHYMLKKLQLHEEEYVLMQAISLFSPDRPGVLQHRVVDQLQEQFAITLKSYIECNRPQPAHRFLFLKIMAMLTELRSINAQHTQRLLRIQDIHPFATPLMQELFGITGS
# UniProt P13631, whole entry, looked up: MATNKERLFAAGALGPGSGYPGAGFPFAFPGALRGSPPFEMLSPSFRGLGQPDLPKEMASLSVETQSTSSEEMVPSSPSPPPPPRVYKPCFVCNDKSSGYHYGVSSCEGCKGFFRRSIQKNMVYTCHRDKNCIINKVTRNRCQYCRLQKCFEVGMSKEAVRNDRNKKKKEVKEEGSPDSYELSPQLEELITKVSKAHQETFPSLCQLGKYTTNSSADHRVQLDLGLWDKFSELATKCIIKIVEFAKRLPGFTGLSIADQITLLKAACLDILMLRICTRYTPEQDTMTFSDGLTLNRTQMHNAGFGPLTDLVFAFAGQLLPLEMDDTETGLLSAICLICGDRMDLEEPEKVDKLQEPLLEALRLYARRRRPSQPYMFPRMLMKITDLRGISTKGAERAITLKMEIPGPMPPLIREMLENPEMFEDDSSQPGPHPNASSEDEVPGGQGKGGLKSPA
# UniProt Q92753: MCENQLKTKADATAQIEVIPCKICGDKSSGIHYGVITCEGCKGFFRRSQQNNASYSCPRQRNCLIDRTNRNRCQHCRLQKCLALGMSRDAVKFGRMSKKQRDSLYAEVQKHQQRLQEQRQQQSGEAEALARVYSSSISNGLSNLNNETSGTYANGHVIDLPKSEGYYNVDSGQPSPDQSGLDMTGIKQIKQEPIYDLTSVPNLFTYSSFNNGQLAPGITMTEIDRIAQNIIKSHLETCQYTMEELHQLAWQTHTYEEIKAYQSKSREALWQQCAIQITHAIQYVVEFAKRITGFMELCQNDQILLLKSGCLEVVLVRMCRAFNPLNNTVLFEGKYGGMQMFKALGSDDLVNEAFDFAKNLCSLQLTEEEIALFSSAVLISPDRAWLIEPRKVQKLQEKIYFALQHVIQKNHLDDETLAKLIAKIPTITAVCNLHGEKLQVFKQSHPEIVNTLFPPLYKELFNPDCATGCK
# UniProt P51449: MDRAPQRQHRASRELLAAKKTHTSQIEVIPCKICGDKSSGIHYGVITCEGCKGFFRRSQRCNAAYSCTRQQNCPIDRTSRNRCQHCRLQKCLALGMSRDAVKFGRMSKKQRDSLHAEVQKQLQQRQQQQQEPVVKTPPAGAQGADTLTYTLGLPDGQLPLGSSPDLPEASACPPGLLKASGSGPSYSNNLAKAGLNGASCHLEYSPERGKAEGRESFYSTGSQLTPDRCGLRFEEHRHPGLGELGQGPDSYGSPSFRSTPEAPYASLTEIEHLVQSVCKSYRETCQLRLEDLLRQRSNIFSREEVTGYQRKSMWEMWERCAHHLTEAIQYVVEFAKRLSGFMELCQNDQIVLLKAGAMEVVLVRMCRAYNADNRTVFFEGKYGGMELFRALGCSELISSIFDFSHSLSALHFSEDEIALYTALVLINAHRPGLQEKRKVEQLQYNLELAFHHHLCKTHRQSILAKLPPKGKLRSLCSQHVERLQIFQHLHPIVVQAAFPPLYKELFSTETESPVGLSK
# UniProt P19793: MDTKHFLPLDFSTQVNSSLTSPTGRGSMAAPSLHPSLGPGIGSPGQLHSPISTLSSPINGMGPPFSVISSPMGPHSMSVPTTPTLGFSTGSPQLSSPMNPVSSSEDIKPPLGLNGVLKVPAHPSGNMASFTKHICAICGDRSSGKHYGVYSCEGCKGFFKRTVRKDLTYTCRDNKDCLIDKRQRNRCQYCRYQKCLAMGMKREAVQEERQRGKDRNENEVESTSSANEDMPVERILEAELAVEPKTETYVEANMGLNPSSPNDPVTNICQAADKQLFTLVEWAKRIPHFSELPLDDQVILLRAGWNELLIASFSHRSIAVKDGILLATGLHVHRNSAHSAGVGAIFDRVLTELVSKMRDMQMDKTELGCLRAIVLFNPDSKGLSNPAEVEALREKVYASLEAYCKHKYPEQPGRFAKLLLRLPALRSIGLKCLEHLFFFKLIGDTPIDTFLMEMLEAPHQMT
# UniProt P10827: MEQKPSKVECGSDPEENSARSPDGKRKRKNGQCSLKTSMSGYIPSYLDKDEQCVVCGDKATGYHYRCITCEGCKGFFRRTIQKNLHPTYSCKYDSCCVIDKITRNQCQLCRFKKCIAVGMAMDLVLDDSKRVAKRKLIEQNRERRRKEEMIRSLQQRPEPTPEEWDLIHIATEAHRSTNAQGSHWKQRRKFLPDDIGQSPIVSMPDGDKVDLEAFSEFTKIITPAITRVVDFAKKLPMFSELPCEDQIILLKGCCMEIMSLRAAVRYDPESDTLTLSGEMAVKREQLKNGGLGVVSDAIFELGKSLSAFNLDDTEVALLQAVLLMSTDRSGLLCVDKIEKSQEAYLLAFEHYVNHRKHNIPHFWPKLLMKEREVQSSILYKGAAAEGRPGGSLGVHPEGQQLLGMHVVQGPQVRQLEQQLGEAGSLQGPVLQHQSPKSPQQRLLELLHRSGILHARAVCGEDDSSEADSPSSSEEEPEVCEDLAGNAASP
# UniProt P28702: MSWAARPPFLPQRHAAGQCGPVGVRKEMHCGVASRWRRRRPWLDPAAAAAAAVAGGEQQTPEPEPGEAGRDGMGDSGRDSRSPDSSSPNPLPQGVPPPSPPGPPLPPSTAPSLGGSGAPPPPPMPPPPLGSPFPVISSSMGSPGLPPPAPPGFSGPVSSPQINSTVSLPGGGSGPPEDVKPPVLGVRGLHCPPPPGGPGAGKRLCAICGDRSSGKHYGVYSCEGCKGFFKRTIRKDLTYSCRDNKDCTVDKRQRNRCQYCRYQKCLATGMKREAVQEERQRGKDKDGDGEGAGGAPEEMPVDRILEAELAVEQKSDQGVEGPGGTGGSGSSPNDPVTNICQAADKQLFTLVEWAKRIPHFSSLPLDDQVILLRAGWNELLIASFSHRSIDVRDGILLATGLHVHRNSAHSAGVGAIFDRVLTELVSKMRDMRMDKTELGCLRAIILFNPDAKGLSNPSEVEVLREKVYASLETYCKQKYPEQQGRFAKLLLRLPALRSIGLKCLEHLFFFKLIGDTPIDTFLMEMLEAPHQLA
# UniProt P11473: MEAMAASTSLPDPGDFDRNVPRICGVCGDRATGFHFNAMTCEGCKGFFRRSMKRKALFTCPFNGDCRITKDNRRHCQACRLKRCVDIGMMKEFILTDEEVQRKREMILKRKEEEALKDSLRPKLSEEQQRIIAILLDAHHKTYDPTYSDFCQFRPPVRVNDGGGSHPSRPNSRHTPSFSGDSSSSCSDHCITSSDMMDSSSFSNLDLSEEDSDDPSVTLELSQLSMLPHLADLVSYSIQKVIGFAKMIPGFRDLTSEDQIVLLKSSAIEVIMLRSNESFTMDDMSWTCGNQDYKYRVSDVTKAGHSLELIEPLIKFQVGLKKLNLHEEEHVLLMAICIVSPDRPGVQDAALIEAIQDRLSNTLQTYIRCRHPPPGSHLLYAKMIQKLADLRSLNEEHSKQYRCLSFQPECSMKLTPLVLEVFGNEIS
# UniProt P37231: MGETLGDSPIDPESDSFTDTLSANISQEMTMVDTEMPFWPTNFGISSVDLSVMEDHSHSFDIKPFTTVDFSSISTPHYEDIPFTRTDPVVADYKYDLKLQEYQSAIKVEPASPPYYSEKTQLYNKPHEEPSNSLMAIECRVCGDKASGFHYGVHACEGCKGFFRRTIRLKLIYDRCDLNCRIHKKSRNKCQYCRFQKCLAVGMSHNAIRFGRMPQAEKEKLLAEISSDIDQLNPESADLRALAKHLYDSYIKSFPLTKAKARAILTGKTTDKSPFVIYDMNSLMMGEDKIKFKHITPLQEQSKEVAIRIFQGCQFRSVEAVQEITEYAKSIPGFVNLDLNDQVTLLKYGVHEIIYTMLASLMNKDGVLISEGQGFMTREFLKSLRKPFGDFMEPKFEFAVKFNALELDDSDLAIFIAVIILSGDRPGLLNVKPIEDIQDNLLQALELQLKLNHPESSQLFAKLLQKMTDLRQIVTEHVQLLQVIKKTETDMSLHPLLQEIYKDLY
# UniProt P20813: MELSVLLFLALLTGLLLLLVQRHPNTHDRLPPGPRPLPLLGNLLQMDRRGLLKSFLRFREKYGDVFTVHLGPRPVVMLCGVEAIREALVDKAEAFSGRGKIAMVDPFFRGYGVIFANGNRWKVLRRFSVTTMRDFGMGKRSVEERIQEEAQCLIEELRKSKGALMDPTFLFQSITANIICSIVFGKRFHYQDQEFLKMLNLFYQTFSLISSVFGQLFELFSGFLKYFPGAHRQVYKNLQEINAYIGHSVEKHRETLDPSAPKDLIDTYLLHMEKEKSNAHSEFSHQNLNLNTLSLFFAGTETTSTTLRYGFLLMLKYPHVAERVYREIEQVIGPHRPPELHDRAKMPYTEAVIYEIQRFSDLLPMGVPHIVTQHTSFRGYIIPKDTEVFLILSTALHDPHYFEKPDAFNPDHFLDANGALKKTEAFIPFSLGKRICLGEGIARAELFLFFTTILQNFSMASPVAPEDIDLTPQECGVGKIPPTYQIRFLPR
# UniProt P08684, whole entry, looked up: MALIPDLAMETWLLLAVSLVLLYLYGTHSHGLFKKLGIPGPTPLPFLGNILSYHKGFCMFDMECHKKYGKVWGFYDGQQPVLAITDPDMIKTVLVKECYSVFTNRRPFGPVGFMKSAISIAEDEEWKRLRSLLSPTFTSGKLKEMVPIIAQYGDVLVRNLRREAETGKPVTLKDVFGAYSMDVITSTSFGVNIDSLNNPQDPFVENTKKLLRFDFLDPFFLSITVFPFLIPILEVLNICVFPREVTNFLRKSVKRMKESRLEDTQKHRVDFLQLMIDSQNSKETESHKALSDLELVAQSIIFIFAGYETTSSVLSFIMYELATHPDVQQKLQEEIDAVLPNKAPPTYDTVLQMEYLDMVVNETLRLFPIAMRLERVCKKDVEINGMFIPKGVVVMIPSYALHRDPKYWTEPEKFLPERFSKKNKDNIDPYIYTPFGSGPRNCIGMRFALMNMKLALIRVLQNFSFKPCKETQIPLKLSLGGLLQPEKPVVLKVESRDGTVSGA
# “And” between values parts separate entries of the source, which are not always exact repeats. Equal values may be shown once. The inconclusive results got no clear call from the source; some entries with a clear call stand among them for comparison. For part of these data: A potency beside an inconclusive call is a rough fit, not a confirmed value. The source made the active and inactive calls. Rule for the calls: active = hit-call score of the fitted dose curve at least 0.9, where 1 is the maximum; inconclusive = response in the unintended direction; inactive = score below 0.9.
# Columns and labels:
# [1] = target: Retinoic acid receptor alpha (Homo sapiens) (UniProt P10276); assay: ATG_RARa_TRANS: Attagene TRANS-FACTORIAL HepG2 Assay for human Retinoic Acid Receptor alpha (RARa) (AID 2283005);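 for AC50: potency for increased reporter signal meaning RARa activation over DMSO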
# Method in brief: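 HepG2 transiently transfected with multiplex GAL4-UAS reporter units including a human RARa–GAL4 chimera; 24 h compound exposure. Reporter mRNA quantified by RT-PCR, 6-FAM labeling and capillary electrophoresis; gain of signal versus DMSO.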
# [2] = target: Nuclear receptor subfamily 1 group I member 2 (Homo sapiens) (UniProt O75469); assay: ATG_PXR_TRANS: Attagene TRANS-FACTORIAL HepG2 Assay for human Pregnane X Receptor (PXR) (AID 2283008)
# Method in brief: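 HepG2 cells transiently transfected with GAL4-UAS reporter units and PXR-Gal4 chimera, exposed 24 h. Reporter mRNA quantified by RT-PCR, fluorescent labelling, HpaI digestion and capillary electrophoresis; gain of signal vs DMSO.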
# [3] = target: human Retinoic Acid Receptor gamma (RARg), RARG (gene 5916) (UniProt P13631); assay: ATG_RARg_TRANS: Attagene TRANS-FACTORIAL HepG2 Assay for human Retinoic Acid Receptor gamma (RARg) (AID 2283009);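 for AC50: AC50 is for reporter induction above DMSO meaning RARg activation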
# Method in brief: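 HepG2, RARg-GAL4 TRANS system, 24 h exposure; reporter mRNA by RT-PCR + CE fluorescence; increase over DMSO.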
# [4] = target: human RAR-related Orphan Receptor beta (RORb), RORB (gene 6096) (UniProt Q92753); assay: ATG_RORb_TRANS: Attagene TRANS-FACTORIAL HepG2 Assay for human RAR-related Orphan Receptor beta (RORb) (AID 2283010);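 for AC50: potency for increased reporter mRNA meaning activation of RORb-Gal4 chimera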
# Method in brief: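 In this TRANS-format test, human HepG2 cells express chimeric NR-Gal4 fusion proteins driving GAL4-UAS reporters. After 24 h dosing, reporter transcripts are measured by fluorescent RT-PCR/capillary electrophoresis, with DMSO as negative control.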
# [5] = target: human RAR-related Orphan Receptor gamma (RORg), RORC (gene 6097) (UniProt P51449); assay: ATG_RORg_TRANS: Attagene TRANS-FACTORIAL HepG2 Assay for human RAR-related Orphan Receptor gamma (RORg) (AID 2283011);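 for AC50: potency for induction of reporter transcripts above DMSO so activators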
# Method in brief: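 Reporter transcripts from a transfected RORg-GAL4 chimera in HepG2 cells were quantified 24 h after dosing by RT-PCR, 6-FAM labelling, HpaI digestion and capillary electrophoresis; increases over DMSO baseline were fitted.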
# [6] = target: Retinoic acid receptor RXR-alpha (Homo sapiens) (UniProt P19793); assay: ATG_RXRa_TRANS: Attagene TRANS-FACTORIAL HepG2 Assay for human Retinoid X Receptor alpha (RXRa) (AID 2283012)
# Method in brief: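 Cells (HepG2) carried transiently transfected GAL4-responsive reporter units. Following a 24 h chemical incubation, reporter mRNA induction was read via RT-PCR fragment analysis; DMSO served as negative control and baseline.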
# [7] = target: human Thyroid Receptor alpha (THRa1), THRA (gene 7067) (UniProt P10827); assay: ATG_THRa1_TRANS: Attagene TRANS-FACTORIAL HepG2 Assay for human Thyroid Receptor alpha (THRa1) (AID 2283014)
# Method in brief: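 Transcripts from GAL4-UAS-driven reporters, measured after 24 h compound exposure by RT-PCR plus capillary electrophoresis of 6-FAM-labeled fragments, were fitted for gain of signal relative to DMSO. Cells: transiently transfected HepG2 expressing NR-Gal4 chimeras.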
# [8] = target: human Retinoid X Receptor beta (RXRb), RXRB (gene 6257) (UniProt P28702); assay: ATG_RXRb_TRANS: Attagene TRANS-FACTORIAL HepG2 Assay for human Retinoid X Receptor beta (RXRb) (AID 2283013)
# Method in brief: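 Multiplexed TRANS reporter assay in HepG2; 24 h dosing; reporter mRNA by RT-PCR/CE fluorescence; gain-of-signal relative to DMSO.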
# [9] = target: human Vitamin D Receptor (VDR), VDR (gene 7421) (UniProt P11473); assay: ATG_VDR_TRANS: Attagene TRANS-FACTORIAL HepG2 Assay for human Vitamin D Receptor (VDR) (AID 2283022)
# Method in brief: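 Transactivation by an exogenous VDR-Gal4 chimera in transiently transfected HepG2 cells was measured as reporter transcript level 24 hours after chemical treatment. RT-PCR products were analysed by capillary electrophoresis and fitted in the positive direction relative to DMSO.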
# [10] = target: Peroxisome proliferator-activated receptor gamma (Homo sapiens) (UniProt P37231); assay: ATG_PPARg_TRANS: Attagene TRANS-FACTORIAL HepG2 Assay for human Peroxisome Proliferator-activated Receptor-gamma (PPARg) (AID 2283007)
# Method in brief: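 HepG2 cells transiently transfected with multiplexed GAL4-UAS reporter units and exogenous chimeric NR-Gal4 proteins; reporter mRNA quantified after 24 h compound exposure by RT-PCR, fluorescent labelling, HpaI digestion and capillary electrophoresis; gain-of-signal fitted versus DMSO baseline.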
# [11] = target: human CYP2B6, CYP2B6 (gene 1555) (UniProt P20813); assay: NVS_ADME_hCYP2B6: NovaScreen (NVS) CYP450-related Enzyme Activity (ADME) Assay for human CYP2B6 (AID 2283101)
# Method in brief: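 Recombinant human CYP2B6 with fluorogenic substrate, read by fluorescence intensity 1 h after dosing. Primary screen in duplicate at 10 uM, actives followed in concentration series; signal loss relative to acetonitrile control.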
# [12] = target: Cytochrome P450 3A4 (Homo sapiens) (UniProt P08684); assay: NVS_ADME_hCYP3A4: NovaScreen (NVS) CYP450-related Enzyme Activity (ADME) Assay for human CYP3A4 (AID 2283110)
# Method in brief: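 Cell-free recombinant enzyme expressed in insect cells; fluorescent substrate turnover read after 0.33 h, acetonitrile as negative control. Primary screen in duplicate at 10 uM, actives then tested in concentration series.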
structure (smiles),measurement,setting,value
CC#Cc1cc(C)nc(Nc2ccccc2)n1,AC50,[1],inconclusive: 82.9 µM
same,outcome,[2],inactive
same,AC50,[3],inconclusive: 40.1 µM
same,AC50,[4],inconclusive: 55.4 µM
same,AC50,[5],inconclusive: 100 µM
same,outcome,[6],inactive
same,AC50,[7],inconclusive: 100 µM
Brc1ccc(Br)cc1,outcome,[1],inactive
same,AC50,[2],inconclusive: 1.82 µM
same,AC50,[3],inconclusive: 100 µM
same,outcome,[4],inactive
same,AC50,[5],inconclusive: 100 µM
same,AC50,[6],inconclusive: 100 µM
same,AC50,[8],inconclusive: 100 µM
same,outcome,[7],inactive
same,AC50,[9],inconclusive: 100 µM
CC(C)OC(=O)Nc1cccc(Cl)c1,outcome,[1],inactive
same,AC50,[2],active: 65.4 µM
same,AC50,[3],inconclusive: 12.1 µM
same,outcome,[4],inactive
same,outcome,[5],inactive
same,outcome,[6],inactive
same,outcome,[8],inactive
COC(=O)Nc1cccc(OC(=O)Nc2cccc(C)c2)c1,AC50,[1],inconclusive: 100 µM
same,outcome,[2],inactive
same,AC50,[3],inconclusive: 0.591 µM
same,outcome,[4],inactive
same,AC50,[5],inconclusive: 100 µM
same,AC50,[6],inconclusive: 29.3 µM
same,AC50,[8],inconclusive: 3.25 µM
C[C@]12CCC(=O)C=C1CC[C@@H]1[C@@H]2CC[C@]2(C)C(=O)CC[C@@H]12,outcome,[1],inactive
same,AC50,[10],inconclusive: 100 µM
same,AC50,[4],inconclusive: 100 µM and inconclusive: 163 µM and inconclusive: 59.6 µM
same,AC50,[5],inconclusive: 26.3 µM and inconclusive: 100 µM and inconclusive: 3.23 µM
same,AC50,[7],inconclusive: 3.22 µM
O=CCCl,outcome,[1],inactive
same,AC50,[2],inconclusive: 27.8 µM
same,outcome,[3],inactive
CCC(C)(C#N)N=NC(C)(C#N)CC (centres undefined),AC50,[1],inconclusive: 2.33 µM
same,outcome,[2],inactive
same,AC50,[3],inconclusive: 51.1 µM
same,outcome,[4],inactive
O=C(CCl)Nc1ccccc1,AC50,[1],inconclusive: 0.352 µM
same,outcome,[2],inactive
same,AC50,[3],inconclusive: 12.8 µM
same,AC50,[4],inconclusive: 162 µM
same,AC50,[5],inconclusive: 8.21 µM
same,AC50,[6],inconclusive: 165 µM
same,AC50,[8],inconclusive: 122 µM
same,outcome,[7],inactive
same,AC50,[9],inconclusive: 100 µM
CC(C)OC(=O)Nc1ccccc1,outcome,[1],inactive
same,outcome,[10],inactive
same,AC50,[4],inconclusive: 100 µM
same,AC50,[8],inconclusive: 0.855 µM
same,AC50,[9],inconclusive: 100 µM
CC(c1ccc(O)cc1)(c1ccc(O)cc1)c1ccc(O)cc1,AC50,[1],inconclusive: 17.4 µM
same,AC50,[2],active: 2.93 µM
same,AC50,[3],inconclusive: 11.1 µM
same,AC50,[4],inconclusive: 11.1 µM
same,AC50,[5],inconclusive: 2.2 µM
same,outcome,[6],inactive
same,AC50,[8],inconclusive: 0.681 µM
same,AC50,[7],inconclusive: 6.2 µM
same,AC50,[9],active: 17.7 µM
CSc1nnc(C(C)(C)C)c(=O)n1N,outcome,[1],inactive
same,AC50,[2],inconclusive: 13.9 µM
same,outcome,[3],inactive
same,outcome,[4],inactive
same,AC50,[5],inconclusive: 0.485 µM
same,outcome,[6],inactive
same,outcome,[8],inactive
same,outcome,[7],inactive
same,AC50,[9],inconclusive: 50 µM
C#CCN1C(=O)COc2cc(F)c(N3C(=O)C4=C(CCCC4)C3=O)cc21,outcome,[1],inactive
same,AC50,[10],active: 50 µM
same,AC50,[4],inconclusive: 0.17 µM
same,outcome,[8],inactive
same,outcome,[7],inactive
same,AC50,[11],active: 4.2 µM
Oc1ccc(Cl)cc1Cl,AC50,[1],inconclusive: 0.0602 µM
same,AC50,[2],inconclusive: 26 µM
same,AC50,[3],inconclusive: 100 µM
same,AC50,[4],inconclusive: 100 µM
same,AC50,[5],inconclusive: 100 µM
same,AC50,[6],inconclusive: 100 µM
same,AC50,[8],inconclusive: 26.5 µM
same,AC50,[9],inconclusive: 100 µM
CC(C)(C)N(NC(=O)c1ccc(Cl)cc1)C(=O)c1ccccc1,AC50,[1],inconclusive: 99.5 µM
same,outcome,[2],inactive
same,outcome,[3],inactive
same,AC50,[4],inconclusive: 0.507 µM
same,AC50,[5],inconclusive: 0.744 µM
same,AC50,[6],inconclusive: 0.107 µM
same,AC50,[7],inconclusive: 99.5 µM
CC(C)(OO)c1ccccc1,AC50,[1],inconclusive: 100 µM
same,AC50,[2],inconclusive: 100 µM
same,AC50,[3],inconclusive: 27.4 µM
same,outcome,[4],inactive
same,AC50,[5],inconclusive: 100 µM
same,AC50,[6],inconclusive: 100 µM
same,outcome,[8],inactive
same,AC50,[7],inconclusive: 100 µM
same,AC50,[12],inconclusive: 0.762 µM

# An excerpt from further up, as a working copy:
structure (smiles),measurement,setting,value
CC(C)(OO)c1ccccc1,AC50,[2],inconclusive: 100 µM
same,AC50,[3],inconclusive: 27.4 µM
same,outcome,[4],inactive
